Assay results taken from publication PMC6838200.
These are yes or no findings as the source states them, for the method shown. Some entries that bind do so weakly or less than the wild type.

Assays:
[1] = target: Aip5-N (Aip5 N-terminal region, 1-1131aa) (S. cerevisiae) (UniProt P43597); test: negative-stain TEM; 1 µM purified protein on carbon-coated copper grids, uranyl acetate stain, non-crowding conditions; both purified
[2] = target: T1, Spa2-LC (Spa2 disordered region 1151-1305aa and ordered region 1306-1466aa) (S. cerevisiae) (UniProt P23201); test: native gel or EMSA; 4 µg Spa2-LC incubated with 2 µg Aip5 variant on ice for 30 min; native PAGE (4% stacking, 9% separating) at 4 °C; both purified
T1 sequence: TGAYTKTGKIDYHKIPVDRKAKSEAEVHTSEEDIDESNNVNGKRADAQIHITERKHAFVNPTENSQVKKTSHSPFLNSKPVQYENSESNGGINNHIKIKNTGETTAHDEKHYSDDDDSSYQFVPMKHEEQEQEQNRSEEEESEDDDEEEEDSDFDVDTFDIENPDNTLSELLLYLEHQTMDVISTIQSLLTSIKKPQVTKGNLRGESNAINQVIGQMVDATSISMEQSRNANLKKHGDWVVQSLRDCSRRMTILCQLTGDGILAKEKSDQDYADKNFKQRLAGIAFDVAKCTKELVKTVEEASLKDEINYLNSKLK

binding [1]: binds
binding [2]: binds
B1: Aip5-N (Aip5 N-terminal region, 1-1131aa) (domain or fragment, UniProt P43597 1-1131)
chain: MVESLTVENQEHNVQPPSVTSAGDSYSTLATDLPLPSTNDIIESRDQLTESDLDEAINATENFAQELSSQRKSSKLKGHKKKNQGQIKANRDRDTIVKLSSSVGETEEASTRDAISHDLERKDDVIEIATDTINDATESPTQIPIDVNVVIKETSTNNVAEGTENVPPIKESTGIEVGNSPITRRKKNKKKKTTNRRGRNSSNPADTTDLSKQSTLDSILVGIEEYLQEDGSKNEDIKVNIVQDEPVNVEKMDIRTRNESSDKTFDIDVPNKDNVDETSSKSENNINEEKAEHTLPREENEILNVNEGNAASFKHQLEPHGLEAGDENGQASTKDVESESLTKNGFNFKENESKHLKAGEKQQTESDRDGISPSVLAKNQKETEIGKEDHVFEQKDKEDEKCRKELSVNHENNMSHNFNAAGSDSIIPPETERETYDDETMGPTKRISDNEKNLQHGTNDISVEVEKEEEEEEEEEENSTFSKVKKENVTGEQEAVRNNEVSGTEEESTSKGEEIMGGDEKQSEAGEKSSIIEIEGSANSAKISKDNLVLEDEAEAPTQENKPTEVVGEIDIPDAPRDDVEIVEAVEKNIIPEDLEVAKEDQEGEQVKLDEPVKAMKDDKIAMRGAESISEDMKKKQEGTAELSNEKAKKEVDETARESAEGVEVEKSKTPESPKVVKRCTSGRPEDLQINERDPEVLKEDVRVPDEDVKPEIATTIENSEEEDPKSQRVQISTEQAETTQKDMGDVGSTTSFKEEEKPKRFEITQEGDKITGKDTNHEHGEATEAASENSKASDVGTAEKYIEPSSESVKKDTEEDAEVENSEKTEFIKVKAELENLDAPKEAEVTAELNKENEDVEVDTEEDAEVENSEKTEFIKVKAELGNLDAPKEAEVTAELNKENEDVEVAATSKEDIETKCSEPAETPIEDGTCTEAEVSKKDAEAVTKEDENMENSKIAEALKDVTGDQEIDDINISDEFQRTVELPELEKQDIKDNKGEDKELEVEETEKETSLPDLVVEENITEEKNEIKQEEEEVSQLDFNETESISKEAPNNDENGFEDQSTRENPKKASADDIFKDILDETNEFLEQLKIVDDSELNALLQSLDAKDSTTQTTEQSKKNNDKPQDVIT
